# This list holds what a sample rich in strong results left over.
# Test system: MOLM1 and UCSD/AML1 (averaged)
# Experiment: cell viability relative to DMSO control (POC); higher = less growth inhibition
# Details: 1 µM; 72 h
# Method: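 Primary viability screen in the 3q26 EVI1-high AML cell lines MOLM1 and UCSD/AML1, compounds at 1 uM for 72 h. ATP CellTiter-Glo read-out given as percent viable over DMSO control (POC), averaged over duplicates. This mapping covers the TimTec NDL-3000 natural derivative library, whose compounds are identified by TimTec catalogue codes (ST...).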
row,SMILES,cell viability [%]
1,COc1ccc(NC(=O)/C=C/c2ccccc2)cc1,91.4
2,O=C1CC(c2ccccc2)Oc2cc(O)ccc21 (configuration not stated),99.4
